Source: PubChem BioAssay AID1224830 (NIAID, 2016)
Screen: 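Host factors that control LPS-induced TNF expression in human macrophages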 (primary screen). Cells: human THP-1 monocytic leukaemia cells, TNF dual-luciferase reporter clone, PMA-differentiated to macrophage-like cells. Knock-down reagent: siRNA pool against human genes, 50 nM. Duration: LPS for 4 h, given about 3 days after siRNA transfection. Challenge: bacterial LPS (TLR4 ligand), 10 ng/ml. Read-out: 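TNF firefly reporter luminescence divided by renilla, normalised to the plate median, then turned into a robust z-score for each replicate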. Direction: TNF reporter robust z-score: higher = stronger TNF reporter response to LPS. Active means: 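a well is active when its z-score exceeds 2.8 or falls below -1.5; control wells carry no call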.
Here is a random part of about 18,000 reagents tested. About 2,900 of all reagents (16%) were called active. 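Calls are made per well; low scores hint the gene aids the LPS response, high scores that it dampens it.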 A number with no mark means an inactive call. Repeated entries: four replicate wells of each siRNA pool.

no.	gene symbol	TNF reporter robust z-score
1	C17orf67	-0.87
2	C17orf67	0.51
3	C17orf67	0.48
4	C17orf67	0.52
5	ATXN7L1	-0.28
6	ATXN7L1	-0.18
7	ATXN7L1	-0.98
8	ATXN7L1	0.55
9	HSPB6	0.43
10	HSPB6	1.62
11	HSPB6	1.87
12	HSPB6	0.46
13	SLC7A5	-0.71
14	SLC7A5	-1.15
15	SLC7A5	-1.29
16	SLC7A5	-1.16
17	LTBP3	0.3
18	LTBP3	-1.11
19	LTBP3	-0.97
20	LTBP3	0.65
21	ADRB2	-0.05
22	ADRB2	-0.88
23	ADRB2	-1.38
24	ADRB2	-1.56 (active)
25	NAGLU	0.01
26	NAGLU	0.02
27	NAGLU	0.28
28	NAGLU	1.53
29	LAYN	-0.59
30	LAYN	-0.01
31	LAYN	-1.18
32	LAYN	0.15
33	GPBAR1	-1.7 (active)
34	GPBAR1	-1.46
35	GPBAR1	-1.53 (active)
36	GPBAR1	-1.42
37	PPM1J	0.17
38	PPM1J	-0.65
39	PPM1J	-0.5
40	PPM1J	0.31
41	CYB5B	0.02
42	CYB5B	-0.79
43	CYB5B	-0.25
44	CYB5B	0.78
45	EFEMP2	0.02
46	EFEMP2	-0.79
47	EFEMP2	-0.24
48	EFEMP2	-0.28
49	SPATA4	-1.57 (active)
50	SPATA4	-0.68
51	SPATA4	-1.1
52	SPATA4	-0.11
53	ZNF264	1.46
54	ZNF264	-0.33
55	ZNF264	-0.43
56	ZNF264	0.84
57	RPL18A	0.12
58	RPL18A	-0.49
59	RPL18A	0.06
60	RPL18A	-0.27
61	LANCL2	0.16
62	LANCL2	0.69
63	LANCL2	-0.59
64	LANCL2	0.24
65	APOA1	-0.45
66	APOA1	-0.89
67	APOA1	-1.03
68	APOA1	-0.31
69	GRIA2	0.85
70	GRIA2	0.55
71	GRIA2	-0.14
72	GRIA2	0.58
73	EIF5A	0.4
74	EIF5A	0.78
75	EIF5A	-1.15
76	EIF5A	2.07

Part of the list above, set out differently.
{"gene symbol":"LTBP3","TNF reporter robust z-score":-1.11}
{"gene symbol":"LTBP3","TNF reporter robust z-score":-0.97}
{"gene symbol":"LTBP3","TNF reporter robust z-score":0.65}
{"gene symbol":"ADRB2","TNF reporter robust z-score":-0.05}
